Measured values taken from patent US7291641B2, “Derivatives of heterocycles with 5 members, their preparation and their use as medicaments” (Societe de Conseils de Recherches et d'Applications …, priority 1999, dated 2007).
Where a name gives a salt, the structure may show the parent alone. Some of these results come from one statement about several compounds together.

These molecules were tested on voltage-dependent sodium channels. Settings: homogenate of rat cortex; [3H] batrachotoxin-A 20-alpha benzoate 5 nM; 1 hour 30 minutes at 25° C.; read-out: IC50 on the bond of tritiated batrachotoxin on the voltage-dependent sodium channels.
Assay type: binding

Row | SMILES | IC50 [nM]
1 | CC(C)N[C@H](c1nc(-c2ccc(F)cc2)c[nH]1)C1CCCCC1 [Example 261, N-{(S)-cyclohexyl[4-(4-fluorophenyl)-1H-imidazol-2-yl]methyl}-2-propanamine] | ≤ 1000
2 | Fc1ccc(-c2c[nH]c([C@@H](NC3CCC3)C3CCCCC3)n2)cc1F [Example 262, N-{(S)-cyclohexyl[4-(3,4-difluorophenyl)-1H-imidazol-2-yl]methyl}cyclobutanamine] | ≤ 1000
3 | Fc1ccc(-c2c[nH]c([C@@H](NC3CCCCC3)C3CCCCC3)n2)cc1 [Example 264, N-{(S)-cyclohexyl[4-(4-fluorophenyl)-1H-imidazol-2-yl]methyl}cyclohexanamine] | ≤ 1000
4 | c1ccc(-c2c[nH]c([C@@H](NCC3CCCCC3)C3CCCCC3)n2)cc1 [Example 265, (S)-cyclohexyl-N-(cyclohexylmethyl)(4-phenyl-1H-imidazol-2-yl)methanamine] | ≤ 1000
5 | c1ccc(-c2c[nH]c([C@@H](NCC3CC3)C3CCCCC3)n2)cc1 [Example 267, (S)-cyclohexyl-N-(cyclopropylmethyl)(4-phenyl-1H-imidazol-2-yl)methanamine] | ≤ 1000
6 | CCCCOC(=O)NCCc1nc(-c2ccc(C3CCCCC3)cc2)c[nH]1 [Example 268, butyl 2-[4-(4-cyclohexylphenyl)-1H-imidazol-2-yl]ethylcarbamate] | ≤ 1000
7 | O=C(NCCc1nc(-c2ccc(-c3ccccc3)cc2)c[nH]1)OC1CCCCC1 [Example 269, 4-[2-(2-{[(cyclohexyloxy)carbonyl]amino}ethyl)-1H-imidazol-4-yl]-1,1′-biphenyl] | ≤ 1000
8 | FC(F)(F)Oc1ccc(-c2c[nH]c([C@@H](NC3CCC3)C3CCCCC3)n2)cc1 [Example 270, N-((S)-cyclohexyl{4-[4-(trifluoromethoxy)phenyl]-1H-imidazol-2-yl}methyl)-cyclobutanamine] | ≤ 1000
9 | O=C(NCCc1nc(-c2ccc(-c3ccccc3)cc2)c[nH]1)OC1CCCC1 [Example 271, 4-[2-(2-{[(cyclopentyloxy)carbonyl]amino}ethyl)-1H-imidazol-4-yl]-1,1′-biphenyl] | ≤ 1000
10 | Fc1ccc(-c2c[nH]c([C@@H](NCC3CC3)C3CCCCC3)n2)cc1 [Example 273, (S)-cyclohexyl-N-(cyclopropylmethyl)[4-(4-fluorophenyl)-1H-imidazol-2-yl]-methanamine] | ≤ 1000
11 | c1cc(C2CCCCC2)ccc1-c1c[nH]c([C@@H](NC2CCC2)C2CCCCC2)n1 [Example 275, N-{(S)-cyclohexyl[4-(4-cyclohexylphenyl)-1H-imidazol-2-yl]methyl}cyclobutanamine] | ≤ 1000
12 | CC(C)[C@@H](NC1CCCCC1)c1nc(-c2ccc(F)cc2)c[nH]1 [Example 276, N-{(1R)-1-[4-(4-fluorophenyl)-1H-imidazol-2-yl]-2-methylpropyl}-cyclohexanamine] | ≤ 1000
13 | FC(F)(F)c1ccc(-c2c[nH]c([C@@H](NC3CCC3)C3CCCCC3)n2)cc1 [Example 277, N-((S)-cyclohexyl{4-[4-(trifluoromethyl)phenyl]-1H-imidazol-2-yl}methyl)cyclobutanamine] | ≤ 1000
14 | CCCCOC(=O)NCCc1nc(-c2ccc3c(c2)OCCO3)c[nH]1 [Example 278, butyl 2-[4-(2,3-dihydro-1,4-benzodioxin-6-yl)-1H-imidazol-2-yl]ethylcarbamate] | ≤ 1000
15 | Cn1cc(-c2ccc(F)cc2)nc1[C@@H](NC1CCCCC1)C1CCCCC1 [Example 279, N-{(S)-cyclohexyl[4-(4-fluorophenyl)-1-methyl-1H-imidazol-2-yl]methyl}cyclohexanamine] | ≤ 1000
16 | O=C(NCCc1nc(-c2ccc(-c3ccccc3)cc2)c[nH]1)OCC1CCCCC1 [Example 280, cyclohexylmethyl 2-(4-[1,1′-biphenyl]-4-yl-1H-imidazol-2-yl)ethylcarbamate] | ≤ 1000
17 | CCCCOC(=O)NCCc1nc(-c2ccc(-c3ccc(Br)cc3)cc2)c[nH]1 [Example 281, 4-bromo-4′-(2-{2-[(butoxycarbonyl)amino]ethyl}-1H-imidazol-4-yl)-1,1′-biphenyl] | ≤ 1000
18 | FC(F)(F)c1cc(-c2c[nH]c([C@@H](NC3CCCCC3)C3CCCCC3)n2)cc(C(F)(F)F)c1 [Example 284, N-[(S)-{4-[3,5-bis(trifluoromethyl)phenyl]-1H-imidazol-2-yl}(cyclohexyl)methyl]cyclohexanamine] | ≤ 1000
19 | O=C(NCCc1nc(-c2ccc(-c3ccccc3)cc2)c[nH]1)OCC1CCC1 [Example 285, cyclobutylmethyl 2-(4-[1,1′-biphenyl]-4-yl-1H-imidazol-2-yl)ethylcarbamate] | ≤ 1000
20 | O=C(NCCc1nc(-c2ccc(F)cc2)c[nH]1)OCC1CCC1 [Example 286, cyclobutylmethyl 2-[4-(4-fluorophenyl)-1H-imidazol-2-yl]ethylcarbamate] | ≤ 1000
21 | Fc1ccc(-c2c[nH]c([C@@H](NC3CCCCC3)C3CCCCC3)n2)cc1F [Example 287, N-{(S)-cyclohexyl[4-(3,4-difluorophenyl)-1H-imidazol-2-yl]methyl}cyclohexanamine] | ≤ 1000

Row | SMILES | IC50 [nM]
22 | COCCOC(=O)NCCc1nc(-c2ccc(-c3ccccc3)cc2)c[nH]1 [Example 288, 4-[2-(2-{[(2-methoxyethoxy)carbonyl]amino}ethyl)-1H-imidazol-4-yl]-1,1′-biphenyl] | ≤ 1000
23 | Fc1ccc(-c2c[nH]c([C@@H](NCC3CCCCC3)C3CCCCC3)n2)cc1 [Example 293, (S)-1-cyclohexyl-N-(cyclohexylmethyl)-1-[4-(4-fluorophenyl)-1H-imidazol-2-yl]methanamine] | ≤ 1000
24 | CCCCOC(=O)NCCc1nc(-c2ccc(C(C)(C)C)cc2)c[nH]1 [Example 294, butyl 2-[4-(4-tert-butylphenyl)-1H-imidazol-2-yl]ethylcarbamate] | ≤ 1000
25 | FC(F)(F)c1ccc(-c2c[nH]c([C@@H](NC3CCCCC3)C3CCCCC3)n2)cc1 [Example 296, N-((S)-cyclohexyl{4-[4-(trifluoromethyl)phenyl]-1H-imidazol-2-yl}methyl)cyclohexanamine] | ≤ 1000
26 | Brc1cccc(-c2c[nH]c([C@@H](NC3CCCCC3)C3CCCCC3)n2)c1 [Example 297, N-[(S)-[4-(3-bromophenyl)-1H-imidazol-2-yl](cyclohexyl)methyl]-cyclohexanamine] | ≤ 1000
27 | CCCCOC(=O)NCCc1nc(-c2ccc(Br)cc2)c[nH]1 [Example 299, butyl 2-[4-(4-bromophenyl)-1H-imidazol-2-yl]ethylcarbamate] | ≤ 1000
28 | CCCCOC(=O)NCCc1nc(-c2ccc(C(F)(F)F)cc2)c[nH]1 [Example 300, butyl 2-{4-[4-(trifluoromethyl)phenyl]-1H-imidazol-2-yl}ethylcarbamate] | ≤ 1000
29 | Fc1ccc(-c2c[nH]c([C@@H](NC3CCCCCC3)C3CCCCC3)n2)cc1 [Example 301, N-{(S)-cyclohexyl[4-(4-fluorophenyl)-1H-imidazol-2-yl]methyl}cycloheptanamine] | ≤ 1000
30 | CC(C)(C)c1ccc(-c2c[nH]c(CCNC(=O)OCC3CCCCC3)n2)cc1 [Example 302, cyclohexylmethyl 2-[4-(4-tert-butylphenyl)-1H-imidazol-2-yl]ethylcarbamate] | ≤ 1000
31 | O=C(NCCc1nc(-c2ccc(-c3ccc(Br)cc3)cc2)c[nH]1)OCC1CCCCC1 [Example 303, cyclohexylmethyl 2-[4-(4′-bromo-1.1′-biphenyl-4-yl)-1H-imidazol-2-yl]ethylcarbamate] | ≤ 1000
32 | FC(F)(F)c1cccc(-c2c[nH]c([C@@H](NC3CCCCC3)C3CCCCC3)n2)c1 [Example 304, N-((S)-cyclohexyl{4-[3-(trifluoromethyl)phenyl]-1H-imidazol-2-yl}methyl)cyclohexanamine] | ≤ 1000
33 | FC(F)(F)c1cccc(-c2c[nH]c([C@@H](NCC3CCCCC3)C3CCCCC3)n2)c1 [Example 305, (S)-1-cyclohexyl-N-(cyclohexylmethyl)-1-{4-[3-(trifluoromethyl)-phenyl]-1H-imidazol-2-yl}methanamine] | ≤ 1000
34 | Brc1cccc(-c2c[nH]c([C@@H](NCC3CCCCC3)C3CCCCC3)n2)c1 [Example 306, (S)-1-[4-(3-bromophenyl)-1H-imidazol-2-yl]-1-cyclohexyl-N-(cyclohexylmethyl)methanamine] | ≤ 1000
35 | N[C@H](CC1CCCCC1)c1nc(-c2ccc(F)cc2)c[nH]1 [Example 308, (1R)-2-cyclohexyl-1-[4-(4-fluorophenyl)-1H-imidazol-2-yl]ethanamine] | ≤ 1000
36 | Fc1ccc(-c2c[nH]c([C@@H](CC3CCCCC3)NC3CCCCC3)n2)cc1 [Example 309, N-{(1R)-2-cyclohexyl-1-[4-(4-fluorophenyl)-1H-imidazol-2-yl]ethyl}cyclohexanamine] | ≤ 1000
37 | CCN(CC)c1ccc(-c2c[nH]c([C@@H](N)C3CCCCC3)n2)cc1 [Example 310, 4-{2-[(S)-amino(cyclohexyl)methyl]-1H-imidazol-4-yl}-N,N-diethylaniline] | ≤ 1000
38 | N[C@H](c1nc(-c2cccc(F)c2)c[nH]1)C1CCCCC1 [Example 311, (S)-1-cyclohexyl-1-[4-(3-fluorophenyl)-1H-imidazol-2-yl]methanamine] | ≤ 1000
39 | Fc1cccc(-c2c[nH]c([C@@H](NCC3CCCCC3)C3CCCCC3)n2)c1 [Example 312, (S)-1-cyclohexyl-N-(cyclohexylmethyl)-1-[4-(3-fluorophenyl)-1H-imidazol-2-yl]methanamine] | ≤ 1000
40 | CCCCOC(=O)NCCc1nc(-c2ccc(N3CCCC3)cc2)c[nH]1 [Example 313, butyl 2-[4-(4-pyrrolidin-1-ylphenyl)-1H-imidazol-2-yl]ethylcarbamate] | ≤ 1000
41 | CNCc1nc(C2(C)CCc3c(C)c(O)c(C)c(C)c3O2)cs1 (stereo not drawn) [Example 321, 2,5,7,8-tetramethyl-2-{2-[(methylamino)methyl]-1,3-thiazol-4-yl}-6-chromanol hydrochloride] | ≤ 3500
42 | N[C@H](Cc1ccccc1)c1nc(-c2ccc(F)cc2)c[nH]1 [Example 324, (1R)-1-[4-(4-fluorophenyl)-1H-imidazol-2-yl]-2-phenylethanamine] | ≤ 1000
